Laboratory results reported in PMC7979882.
No constants are given. Whether binding was seen depends on the method and setting. Binding seen in cells or lysates may run through a third protein. Some entries that bind do so weakly or less than the wild type.

Protein sequences, listed by entry. Tags and fused reporters are not part of them.
UniProt P37231: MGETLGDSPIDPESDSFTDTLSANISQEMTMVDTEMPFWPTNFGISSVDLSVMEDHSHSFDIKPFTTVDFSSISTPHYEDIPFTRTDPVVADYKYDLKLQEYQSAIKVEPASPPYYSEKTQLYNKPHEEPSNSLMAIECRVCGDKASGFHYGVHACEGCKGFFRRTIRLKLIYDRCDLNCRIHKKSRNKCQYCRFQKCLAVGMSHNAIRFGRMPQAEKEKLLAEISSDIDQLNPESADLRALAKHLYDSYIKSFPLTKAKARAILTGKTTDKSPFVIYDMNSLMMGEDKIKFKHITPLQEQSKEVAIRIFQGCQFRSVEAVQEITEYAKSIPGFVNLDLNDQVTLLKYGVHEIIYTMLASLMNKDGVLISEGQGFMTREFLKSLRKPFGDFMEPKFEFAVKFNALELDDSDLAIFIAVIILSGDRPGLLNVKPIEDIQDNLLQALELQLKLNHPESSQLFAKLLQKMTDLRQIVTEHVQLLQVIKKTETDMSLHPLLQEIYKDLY

Key:
hHNRNPK-Flag (human) [1] = molecular target: hHNRNPK-Flag (human) (UniProt P61978); experiment: co-IP; Supplementary Fig. S4A; the sentence does not name the method (co-IP is the only protein-protein method in the methods); which protein was the bait is not told
hHSP90AA1-Flag (human) = hHSP90AA1-Flag (human) (UniProt P07900); experiment: co-IP; 293 cells transfected with the Flag plasmid for 72 h; lysis in 20 mM Tris pH 7.5, 150 mM NaCl, 1% Triton X-100; precleared with protein A/G-agarose; anti-FLAG M2 affinity gel overnight, then protein A/G-agarose at 4 °C for 4 h; western blot
hHNRNPK-Flag (human) [2] = molecular target: hHNRNPK-Flag (human) (UniProt P61978); experiment: as above
hPPARγ-Flag (human) = hPPARγ-Flag (human) (UniProt P37231); experiment: as above

| binding (hHNRNPK-Flag (human) [1]) | binding (hHSP90AA1-Flag (human)) | binding (hHNRNPK-Flag (human) [2]) | binding (hPPARγ-Flag (human)) | Molecule |
| --- | --- | --- | --- | --- |
| no binding | – | – | – | hHSP90AA1-Flag (from UniProt P07900-2 1-854) |
| – | binds | no binding | no binding | human period circadian regulator 3 (hPER3) (protein, UniProt P56645 1-1201) MPRGEAPGPGRRGAKDEALGEESGERWSPEFHLQRKLADSSHSEQQDRNRVSEELIMVVQEMKKYFPSERRNKPSTLDALNYALRCVHSVQANSEFFQILSQNGAPQADVSMYSLEELATIASEHTSKNTDTFVAVFSFLSGRLVHISEQAALILNRKKDVLASSHFVDLLAPQDMRVFYAHTARAQLPFWNNWTQRAARYECAPVKPFFCRIRGGEDRKQEKCHSPFRIIPYLIHVHHPAQPELESEPCCLTVVEKIHSGYEAPRIPVNKRIFTTTHTPGCVFLEVDEKAVPLLGYLPQDLIGTSILSYLHPEDRSLMVAIHQKVLKYAGHPPFEHSPIRFCTQNGDYIILDSSWSSFVNPWSRKISFIIGRHKVRTSPLNEDVFATKIKKMNDNDKDITELQEQIYKLLLQPVHVSVSSGYGSLGSSGSQEQLVSIASSSEASGHRVEETKAEQMTLQQVYASVNKIKNLGQQLYIESMTKSSFKPVTGTRTEPNGGGECKTFTSFHQTLKNNSVYTEPCEDLRNDEHSPSYQQINCIDSVIRYLKSYNIPALKRKCISCTNTTSSSSEEDKQNHKADDVQALQAGLQIPAIPKSEMPTNGRSIDTGGGAPQILSTAMLSLGSGISQCGYSSTIVHVPPPETARDATLFCEPWTLNMQPAPLTSEEFKHVGLTAAVLSAHTQKEEQNYVDKFREKILSSPYSSYLQQESRSKAKYSYFQGDSTSKQTRSAGCRKGKHKRKKLPEPPDSSSSNTGSGPRRGAHQNAQPCCPSAASSPHTSSPTFPPAAMVPSQAPYLVPAFPLPAATSPGREYAAPGTAPEGLHGLPLSEGLQPYPAFPFPYLDTFMTVFLPDPPVCPLLSPSFLPCPFLGATASSAISPSMSSAMSPTLDPPPSVTSQRREEEKWEAQSEGHPFITSRSSSPLQLNLLQEEMPRPSESPDQMRRNTCPQTEYCVTGNNGSESSPATTGALSTGSPPRENPSHPTASALSTGSPPMKNPSHPTASALSTGSPPMKNPSHPTASTLSMGLPPSRTPSHPTATVLSTGSPPSESPSRTGSAASGSSDSSIYLTSSVYSSKISQNGQQSQDVQKKETFPNVAEEPIWRMIRQTPERILMTYQVPERVKEVVLKEDLEKLESMRQQQPQFSHGQKEELAKVYNWIQSQTVTQEIDIQACVTCENEDSADGAATSCGQVLVEDSC |
